For one substance, binding results are on record in article PMC3189943, “Catalytic Properties of the Isolated Diaphorase Fragment of the NAD^+-Reducing [NiFe]-Hydrogenase from Ralstonia eutropha” (PLoS ONE, 2011).

By UniProt entry, the sequences of proteins in these tests, tags left out.
UniProt P22317: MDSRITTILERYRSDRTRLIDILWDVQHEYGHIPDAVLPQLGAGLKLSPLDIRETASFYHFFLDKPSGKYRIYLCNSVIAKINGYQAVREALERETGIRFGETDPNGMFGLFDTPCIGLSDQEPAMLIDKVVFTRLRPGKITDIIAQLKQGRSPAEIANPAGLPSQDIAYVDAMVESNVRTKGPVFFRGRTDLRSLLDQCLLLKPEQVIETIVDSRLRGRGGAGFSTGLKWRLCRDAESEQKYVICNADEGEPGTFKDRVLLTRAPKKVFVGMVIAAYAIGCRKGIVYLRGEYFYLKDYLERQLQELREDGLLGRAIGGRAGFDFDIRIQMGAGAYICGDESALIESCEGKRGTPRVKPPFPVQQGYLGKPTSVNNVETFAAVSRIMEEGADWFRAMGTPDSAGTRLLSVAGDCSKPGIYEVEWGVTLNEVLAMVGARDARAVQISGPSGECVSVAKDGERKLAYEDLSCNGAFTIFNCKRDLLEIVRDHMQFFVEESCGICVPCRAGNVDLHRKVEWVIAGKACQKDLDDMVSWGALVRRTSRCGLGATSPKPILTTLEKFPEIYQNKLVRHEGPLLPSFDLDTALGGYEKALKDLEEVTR
UniProt P22318: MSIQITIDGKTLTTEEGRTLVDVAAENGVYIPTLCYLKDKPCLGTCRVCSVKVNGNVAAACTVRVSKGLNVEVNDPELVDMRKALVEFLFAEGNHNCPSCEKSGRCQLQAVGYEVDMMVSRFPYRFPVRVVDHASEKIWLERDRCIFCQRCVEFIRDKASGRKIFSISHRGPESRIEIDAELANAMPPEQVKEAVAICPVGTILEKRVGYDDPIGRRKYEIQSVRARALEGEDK

The target of this test is Strep-tagged HoxF, subunit of the diaphorase moiety of the NAD+-reducing soluble [NiFe]-hydrogenase (SH) of Ralstonia eutropha H16 (Ralstonia eutropha H16) (UniProt P22317). The test is described as follows: pull-down + SEC; Strep-tagged HoxF captured from the soluble extract of R. eutropha HF424(pGE553) on a Strep-Tactin Superflow column, eluted with 5 mM desthiobiotin, then gel filtration on Superdex 200; 50 mM Tris-HCl, 150 mM KCl, 5% glycerol, pH 8.0; read by SDS-PAGE with Coomassie blue and peptide mass fingerprinting.

No constants are given. Whether binding was seen depends on the method and setting. Binding seen in cells or lysates may run through a third protein. Some results given as binding are weak or reduced against the parent protein; the word gives no strength.

Turning to “HoxU, subunit of the diaphorase moiety of the NAD+-reducing soluble [NiFe]-hydrogenase (SH) of Ralstonia eutropha H16 (from UniProt P22318 1-234)”, the binding result is on record as “binds”.
